In patent US20020107370A1:
No constants are given. Whether binding was seen depends on the method and setting. In cells and extracts the contact can be indirect. Some entries that bind do so weakly or less than the wild type.

By UniProt entry, the sequences of proteins in these tests, tags left out. Where a name states a change or a piece, a line headed by the entry shows the natural chain unless it says otherwise. Residues count along the entry.
UniProt O14727: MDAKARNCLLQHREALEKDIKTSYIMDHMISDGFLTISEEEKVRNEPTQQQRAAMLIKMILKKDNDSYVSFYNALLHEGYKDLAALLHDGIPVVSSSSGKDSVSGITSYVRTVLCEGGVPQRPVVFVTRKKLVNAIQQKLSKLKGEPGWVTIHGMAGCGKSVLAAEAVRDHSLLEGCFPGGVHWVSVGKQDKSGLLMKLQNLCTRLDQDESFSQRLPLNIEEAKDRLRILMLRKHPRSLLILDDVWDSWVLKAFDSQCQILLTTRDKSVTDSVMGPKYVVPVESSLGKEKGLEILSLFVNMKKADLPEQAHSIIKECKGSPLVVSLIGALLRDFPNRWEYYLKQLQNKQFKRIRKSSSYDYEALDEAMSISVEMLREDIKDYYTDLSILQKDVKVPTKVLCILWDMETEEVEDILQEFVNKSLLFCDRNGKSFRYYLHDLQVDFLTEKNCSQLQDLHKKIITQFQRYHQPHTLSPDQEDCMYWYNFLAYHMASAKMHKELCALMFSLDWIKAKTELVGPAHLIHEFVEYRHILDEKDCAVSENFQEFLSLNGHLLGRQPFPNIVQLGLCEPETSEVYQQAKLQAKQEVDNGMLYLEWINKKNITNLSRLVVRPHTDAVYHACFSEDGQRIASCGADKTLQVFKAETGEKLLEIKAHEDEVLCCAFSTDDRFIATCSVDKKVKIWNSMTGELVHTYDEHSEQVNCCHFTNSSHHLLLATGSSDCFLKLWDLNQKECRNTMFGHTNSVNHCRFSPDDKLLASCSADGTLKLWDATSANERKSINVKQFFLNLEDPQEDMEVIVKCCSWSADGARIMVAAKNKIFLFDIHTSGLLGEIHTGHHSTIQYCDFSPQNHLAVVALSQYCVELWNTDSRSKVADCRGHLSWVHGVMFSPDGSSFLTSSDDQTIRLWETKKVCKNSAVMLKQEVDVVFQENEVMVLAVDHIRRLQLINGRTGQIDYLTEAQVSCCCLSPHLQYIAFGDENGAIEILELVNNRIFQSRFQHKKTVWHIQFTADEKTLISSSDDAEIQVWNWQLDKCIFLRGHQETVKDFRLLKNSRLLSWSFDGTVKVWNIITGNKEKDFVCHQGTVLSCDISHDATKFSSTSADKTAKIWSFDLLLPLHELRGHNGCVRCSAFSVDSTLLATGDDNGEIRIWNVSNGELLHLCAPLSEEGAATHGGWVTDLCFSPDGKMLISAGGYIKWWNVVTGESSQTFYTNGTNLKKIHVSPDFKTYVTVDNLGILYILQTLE
UniProt P99999, residues 2-105: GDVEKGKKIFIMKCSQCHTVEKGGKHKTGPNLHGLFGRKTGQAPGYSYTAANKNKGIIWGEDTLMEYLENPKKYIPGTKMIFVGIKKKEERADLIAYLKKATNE

Biological target: Apaf-1 (native human Apaf-1 from HeLa cell cytosol) (human) (UniProt O14727)
Assay: co-immunoprecipitation with anti-Apaf-1 antiserum from un-fractionated HeLa cell S-100, Western blot

**Q.** “cytochrome c in un-fractionated HeLa cell S-100 (from UniProt P99999 2-105)” was tested. Which binding did it give?
**A.** binds
